Measurements: PubChem BioAssay AID540303 (National Center for Advancing Translational Sciences (NCATS), 2011)
The whole screen tested about 330,000 compounds, of which about 1,000 (0.3%) were called active. This list was built around the results that the source calls inconclusive (neither active nor inactive); the mix of calls is not that of the screen. Calls follow the shape of the dose curve; as a rule, active = well fitted inhibition curve with a large enough effect; inconclusive = small, poorly fitted or top-dose-only effect; inactive = no such curve, though single readings can be large or run the other way; tested in mouse RAW 264.7 cells. Potencies beside an inconclusive call are fits to weak or partial responses and may not hold up.

Assay: qHTS for Inhibitors of Cell Surface uPA Generation; also: nearly all actives have a fitted effect of over 55% in size
Details: cell surface uPA generation assay; series mostly up to 38.3 µM
How it was run: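 RAW 264.7 cells, 4000/well, given compound (1:5 dilutions, up to 38.3 uM final) and incubated 24 h at 37 C. Blocked uPA-dependent LF entry keeps ATP high; ATPlite luminescence read, 5 s exposure.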
Potency is read from the fitted curve at half-maximal effect.

SMILES | Potency
Cc1ccc2c(c1)NC(=O)[C@@]1(C)[C@@H](c3ccccc3)[C@H]3COc4ccc(Cl)cc4[C@@H]3N1C2=O | inconclusive: 12.6 µM [inhibitor, single point]
Cc1ccc(OCCCC(=O)NNC(=O)c2ccccn2)cc1 | inconclusive: 7.94 µM [inhibitor, single point]
CCCCC(=O)Nc1cc([N+](=O)[O-])ccc1F | inconclusive: 12.6 µM [inhibitor, single point]
C#CCOCCOCCOCCNc1nc(N2CCN(C(=O)CCCCCCCCCCNC(=O)Cn3cc(C[C@@H](C)O)nn3)CC2)nc(N2CCN(C(=O)CCCCCCCCCCNC(=O)[C@@H]([C@H](C)O)n3cc(C)nn3)CC2)n1 | inconclusive: 12.6 µM [inhibitor, single point]
COc1ccc(-c2cc(C(=O)Nc3cccc(O)c3)no2)cc1 | active: 5.01 µM
COCCn1c(SCc2ccccc2Cl)nc2c1c(=O)[nH]c(=O)n2C | inactive
O=C(OCC(=O)N1CCc2ccccc2C1)c1c(F)cccc1Cl | inconclusive: 7.08 µM [inhibitor, single point]
Cc1ccc(OCc2nc3ccccc3n2C)cc1 | inconclusive: 1.78 µM [inhibitor, partial curve, poor fit]
COc1ccc(Cl)cc1NC(=O)CN(C)C(=O)CCCNC(=O)c1ccc(Cl)cc1 | inconclusive: 10 µM [inhibitor, partial curve, poor fit]
CCc1ccc(NSc2ccccc2[N+](=O)[O-])cc1 | inconclusive: 11.2 µM [inhibitor, single point]
Cc1ccc(NC(=O)c2ncn(CCCN[C@H](C)c3cccc4ccccc34)n2)cc1C | inconclusive: 11.2 µM [inhibitor, partial curve, poor fit]
Cc1nn(-c2ccccc2)c(Cl)c1/C=N/NC(=O)CNC(=O)c1ccccc1Cl | inactive
CCN(CC)C(=O)[C@H]1CC(CC(=O)NC/C=C(\C)CCC=C(C)C)C(=O)N2CCc3c([nH]c4ccccc34)[C@]12C (stereo partly specified) | inconclusive: 28.2 µM [inhibitor, partial curve, poor fit]
Cc1cc(C(=O)CSc2nc3ccccc3[nH]2)c(C)n1C | inactive
O=C(Nc1ccccn1)c1ccc([N+](=O)[O-])o1 | active: 7.08 µM
C/C(=N\NC(=O)CCCNc1cccc(C)c1)c1ccncc1 | inconclusive: 0.0089 µM [inhibitor, full curve, poor fit]
Cn1c(SCC(=O)Nc2ccc(Br)cc2)nc(O)cc1=O | inactive
CCCCn1cnc2c(SCc3ccc([N+](=O)[O-])cc3)nc(N)nc21 | inactive
O=C(NCCc1ccc(Cl)cc1)c1ccc2nc[nH]c2c1 | inconclusive: 8.91 µM [inhibitor, partial curve, poor fit]
C=C1CC[C@@H]2[C@](C)(CO)[C@H](O)CC[C@@]2(C)[C@@H]1C/C=C1/C(=O)OCC1O (stereo partly specified) | inconclusive: 4.47 µM [inhibitor, partial curve]
O=C(N[C@@H]1C/C=C\C[C@@H](CC(=O)N(CCO)Cc2ccccc2)C(=O)N[C@@H](c2ccccc2)COC1=O)OCC1c2ccccc2-c2ccccc21 | inconclusive: 7.94 µM [inhibitor, single point]
Cc1ccc(C)c(NC2=C(Cl)C(=O)OC2OC(=O)c2ccco2)c1 (stereo unspecified) | inconclusive: 14.1 µM [inhibitor, partial curve, poor fit]

SMILES | Potency
CCOC(=O)C1(CCCc2ccccc2)CCN(C(=O)c2cncs2)CC1 | inactive
COc1ccc(C(=O)NC(=S)Nc2ccc(N3CCOCC3)cc2)cc1Cl | inactive
CCOc1ccc(CNC(=O)Cn2ccc3cc(S(=O)(=O)N4CCCCCC4)ccc32)cc1 | active: 1 µM
Cc1ccc(S(=O)(=O)c2cnc(-c3ccccc3)nc2N2CCN(C)CC2)cc1 | inconclusive: 3.16 µM [inhibitor, partial curve, poor fit]
O=C(CNC(=O)c1ccc(Br)o1)NNC(=O)c1ccc(Br)cc1 | inconclusive: 2.82 µM [inhibitor, single point]
CCCN1CCN(CCCNC(=O)c2cc3c(=O)n(C)c4ccccc4c3n2C)CC1 | inconclusive: 11.2 µM [inhibitor, partial curve, poor fit]
O=C(N/N=C/c1cc(Cl)cc([N+](=O)[O-])c1O)C(O)(c1ccccc1)c1ccccc1 | inconclusive: 11.2 µM [inhibitor, partial curve, poor fit]
O=C(COC(=O)c1ccc([N+](=O)[O-])o1)NC1CCCC1 | inactive
Cc1ccccc1NC(=S)c1ccc2ccccc2n1 | inconclusive: 1.58 µM [inhibitor, single point]
Cc1ccc(C(=O)Cc2ccccc2)cc1 | inactive
c1ccc(CNc2ncnc3c2cnn3Cc2ccccc2)cc1 | inconclusive: 5.01 µM [inhibitor, partial curve, poor fit]
CCOCCCNC(=S)N(CCO)Cc1cc2cc3c(cc2[nH]c1=O)OCCO3 | inconclusive: 3.98 µM [inhibitor, full curve, poor fit]
CCOc1ccc(N(CC(=O)Nc2ccccc2OC)S(=O)(=O)c2ccccc2)cc1 | inconclusive: 0.501 µM [inhibitor, full curve, poor fit]
Cc1cc(NC(=O)CSc2nnc3c(C)cc4c(C)ccc(C)c4n23)no1 | inconclusive: 2.51 µM [inhibitor, full curve]
NC(=O)c1cc(Cl)ccc1OCC(=O)Nc1ccc2c(c1)OCO2 | active: 6.31 µM
COc1ccc(/C=N\NC(=O)c2cc3c(ccc4ccccc43)o2)cc1O | inconclusive: 28.2 µM [inhibitor, single point]
C(=N\Nc1nc2ccccc2[nH]1)/c1cccc2cccnc12 | inconclusive: 1.12 µM [inhibitor, full curve, poor fit]
COc1ccc(C(=O)OC(C)C(=O)NCC2CCCCC2)cc1S(=O)(=O)N1CCOCC1 (stereo unspecified) | inconclusive: 3.16 µM [inhibitor, partial curve, poor fit]
Cc1ccc(-c2nc(-c3ccccn3)no2)cc1[N+](=O)[O-] | inconclusive: 10 µM [inhibitor, partial curve, poor fit]
COc1ccccc1CNC(=O)C1CC(c2cccc([N+](=O)[O-])c2)=NO1 (stereo unspecified) | inconclusive: 3.16 µM [inhibitor, partial curve]
Cc1ccnc(NC(=O)c2ccc([N+](=O)[O-])s2)c1 | inconclusive: 8.91 µM [inhibitor, partial curve]
CN(C(=O)c1cccc(NC(=O)Cc2ccc(NC(=O)C3CCCN(C(=O)CCc4ccccc4)C3)cc2)c1)C1CCCC1 (stereo unspecified) | inconclusive: 12.6 µM [inhibitor, partial curve, poor fit]

Looked up above:
Value for Cc1ccc(NC(=O)c2ncn(CCCN[C@H](C)c3cccc4ccccc34)n2)cc1C under Potency: inconclusive: 11.2 µM [inhibitor, partial curve, poor fit]
Value for O=C(OCC(=O)N1CCc2ccccc2C1)c1c(F)cccc1Cl under Potency: inconclusive: 7.08 µM [inhibitor, single point]
Value for O=C(CNC(=O)c1ccc(Br)o1)NNC(=O)c1ccc(Br)cc1 under Potency: inconclusive: 2.82 µM [inhibitor, single point]

More records follow.

SMILES | Potency
COc1ccc(N2CCN(C(=O)c3cc4c(C)nc5ccccc5c4o3)CC2)cc1 | inconclusive: 12.6 µM [inhibitor, single point]
Cn1c(SCC(=O)N(C2CCCCC2)C2CCCCC2)nnc1-c1cccs1 | inconclusive: 28.2 µM [inhibitor, single point]
CC(=O)/C(N=Nc1ccc2c(c1)OCCO2)=C(\C)O | inconclusive: 12.6 µM [inhibitor, single point]
CNC(C)C#Cc1ccc2oc3cccc(OC)c3c(=O)c2c1 (stereo unspecified) | inconclusive: 7.94 µM [inhibitor, partial curve]
C=CCn1c(=O)/c(=C/c2ccc(F)cc2)s/c1=C(\C#N)c1nnc2n1CCCCC2 | inactive
Cc1ccc(C(=O)N=c2sccn2C)cc1S(=O)(=O)N1CCOCC1 | inconclusive: 12.6 µM [inhibitor, single point]
CCOc1ccc(NC(=O)CN2C(=O)NC(C)(c3ccc4c(c3)OCCCO4)C2=O)cc1OCC (stereo unspecified) | inactive
Cc1cccc(N/N=C(\C#N)S(=O)(=O)C(C)(C)C)c1 | inactive
CC1CCCN(S(=O)(=O)c2ccc(C(=O)Nc3nnc(-c4ccccn4)o3)cc2)C1 (stereo unspecified) | inconclusive: 12.6 µM [inhibitor, single point]
CCNC(=S)N/N=C(\C)c1cccc(C(F)(F)F)c1 | inactive
S=c1[nH]nc(Cn2cnc3ccccc32)n1-c1ccccc1Cl | inactive
O=C(COc1ccccc1-c1ccccc1)NN=C1CCCC1 | active: 10 µM
O=C(/C=C/c1cccc([N+](=O)[O-])c1)c1ccco1 | inactive
O=C(COC(=O)c1ccccc1)Nc1cc(S(=O)(=O)N2CCCCCC2)ccc1Cl | inconclusive: 14.1 µM [inhibitor, single point]
COc1ccc(-c2coc3cc(O)cc(O)c3c2=O)cc1 | inconclusive: 2.24 µM [inhibitor, partial curve, poor fit]
Cc1cc(C)c(OCC(=O)NCC(c2ccco2)N2CCCCC2)c(C)c1 (stereo unspecified) | inconclusive: 12.6 µM [inhibitor, single point]
CCn1ccnc1CNC(=O)c1cc(COc2ccc(F)cc2F)on1 | inactive
CN1CCN(CCCNC(=O)c2ccc(/C=C3\Sc4ccccc4N(Cc4ccccc4F)C3=O)cc2)CC1 | inconclusive: 7.94 µM [inhibitor, partial curve, poor fit]
Cc1ccc(C2CC(=O)NC(SCC(N)=O)=C2C#N)s1 (stereo unspecified) | inactive
Cc1ccc(CNC(=O)Cn2cnc(C(=O)Nc3ccc(C)c(C)c3)n2)o1 | inconclusive: 11.2 µM [inhibitor, partial curve, poor fit]
Nc1ccc2c(c1)N1CCN=C1S2 | inactive
CCCn1c(=O)n(C)c(=O)c2c(SCC(=O)Nc3cc(C)on3)nc(C(C)(C)C)nc21 | inconclusive: 31.6 µM [inhibitor, partial curve, poor fit]
